# Paper PMC3400559
# No constants are given. Whether binding was seen depends on the method and setting. Some results given as binding are weak or reduced against the parent protein; the word gives no strength.
# B1: MFAP-1 (C. elegans microfibrillar-associated protein 1) (protein, UniProt Q93712 1-466)
# chain: MGDYVPGFEQRESDNRSFGHSRLPTLGAIPIKNEKGQTVMQKVKVSRYVAGKAPEYARNYDSDSSESDRETDRDDDRRRRRRRESSDEEDRRRHRRHEDYGRRRQVEKPEVLGKVEDESSENEQESEEDEEKQEERRERARMRRLELHENNREKDEEQEDSAESDEEDFERRRQMLRDRAIKREEEIKREIKEELEEDDVEEEEEEESSEEEDSDEDDDPVPRLKPIFTRKKDRITLQEAEKEKEKEILKKIEDEKRAEERKRESAKLVEKVLQEEEAAEKRKTEDRVDLSSVLTDDETENMAYEAWKLREMKRLKRNRDEREEAAREKAELDKIHAMSEEERLKYLRLNPKVITNKQDKGKYKFLQKYFHRGAFFLDEEDEVLKRNFAEATNDDQFDKTILPKVMQVKNFGKASRTKYTHLTEEDTTDHQGVWASTNQLNSQFSTKRAGGSRPVFERPATKKRKN
# Molecular target: MFAP-1 (C. elegans microfibrillar-associated protein 1) (C. elegans) (UniProt Q93712)
# Assay: two-hybrid; screen: bait full-length MFAP-1 in pGBK T7, preys from a pACT2.2 C. elegans library, S. cerevisiae PJ69-4A, growth on SD-Leu-Trp-His with 5 mM 3-AT; clones isolated, retested, and no survival with the pGBK T7 empty vector
binder,measurement,value
B1,binding,binds
